Values from PubChem BioAssay AID504804 (Drosophila RNAi Screening Center, 2011).

Test: 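Knock-downs shielding fly cells from apoptosis caused by DNA damage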 (primary screen)
Cell system: Drosophila Kc cells
Knock-down reagent: long dsRNA against Drosophila genes, 0.5 µg dsRNA per well
Duration: 96 h (48 h knock-down, then 48 h drug)
Challenge: doxorubicin 5 µg/ml for 48 h, added 48 h after dsRNA
Measured: 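Viability measured as cellular ATP by luminescence after 48 h knock-down then 48 h doxorubicin at 5 µg/ml; unnormalised plate counts for each replicate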
Scale: raw ATP luminescence: higher = more viable cells, protection from doxorubicin
Rule for the call: 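z-score of 2 or more over plate mean in both duplicates, retained only when retests and separate dsRNAs confirm the protection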
The deposit covers about 19,000 reagents; this is an unselected part of those that have a named target and a result. In the full data, 47 (0.25%) are marked active. 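Signals are raw, not normalised; exact z-scores behind calls not deposited; actives needed confirmation, so some wells reaching 2 SD are inactive.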 Unmarked entries are inactive. Reagents against one gene are numbered here.

With knock-down of CG5382 the results were raw ATP luminescence, replicate 1 = 37913; raw ATP luminescence, replicate 2 = 39173.
Depletion of yps gave: raw ATP luminescence, replicate 1 = 74613; raw ATP luminescence, replicate 2 = 72650.
Against cyp33, the values are raw ATP luminescence, replicate 1 = 74770; raw ATP luminescence, replicate 2 = 37863.
With knock-down of cmet, the record shows raw ATP luminescence, replicate 1 = 35440; raw ATP luminescence, replicate 2 = 77637.
Against CG6908, the values are raw ATP luminescence, replicate 1 = 63557; raw ATP luminescence, replicate 2 = 56013.
Against CG8839, the values are raw ATP luminescence, replicate 1 = 45517; raw ATP luminescence, replicate 2 = 39490.

Limited to “raw ATP luminescence, replicate 1” (2 entries from above):
CG5382	37913
yps	74613

The results go on.
With knock-down of Naa15-16, the screen gave raw ATP luminescence, replicate 1 = 1.69e5; raw ATP luminescence, replicate 2 = 1.67e5.
After knock-down of CG18476 the results were raw ATP luminescence, replicate 1 = 56627; raw ATP luminescence, replicate 2 = 28513.
After knock-down of IntS12 the results were raw ATP luminescence, replicate 1 = 47680; raw ATP luminescence, replicate 2 = 44660.
Against Tk, the entry reads raw ATP luminescence, replicate 1 = 41663; raw ATP luminescence, replicate 2 = 47457.
For CG31921, the entry reads raw ATP luminescence, replicate 1 = 2.61e5; raw ATP luminescence, replicate 2 = 2.52e5.
With knock-down of aralar1 the results were raw ATP luminescence, replicate 1 = 2.99e5; raw ATP luminescence, replicate 2 = 2.70e5.
GstD6 gave raw ATP luminescence, replicate 1 = 48623; raw ATP luminescence, replicate 2 = 56763.
CG6329 scored raw ATP luminescence, replicate 1 = 49390; raw ATP luminescence, replicate 2 = 44617.
CG14854 showed raw ATP luminescence, replicate 1 = 68390; raw ATP luminescence, replicate 2 = 61830.
Against CG32237 #1, the values are raw ATP luminescence, replicate 1 = 92103; raw ATP luminescence, replicate 2 = 91410.
For CG32237 #2, the values are raw ATP luminescence, replicate 1 = 96167; raw ATP luminescence, replicate 2 = 91520.
Against nec the deposit lists raw ATP luminescence, replicate 1 = 53743; raw ATP luminescence, replicate 2 = 79263.
Depletion of CG11384 came out at: raw ATP luminescence, replicate 1 = 57380; raw ATP luminescence, replicate 2 = 63520.
